This is an account of results in patent US6863211B2, “Omega-hydrofluoroalkyl ethers, precursor carboxylic acids and derivatives thereof, and their preparation and application” (3M Innovative Properties Company, priority 1994, dated 2005).

This data set can be described thus: Blowing agent for foamed polyurethane. The settings on record: 1.87 pbw as blowing agent in polyurethane foam. The procedure:
Omega-hydrofluoralkyl ether compounds of this invention were evaluated as blowing agents for foams using the procedures taught in U.S. Pat. No. 5,210,106 (Dams et al.). Component A contained 15.0 parts by weight of PAPI™27, a methylene diphenyldiisocyanate having an isocyanate equivalent of 134.0, available from Dow Chemical. Component B of the foam contained 10.5 parts by weight (pbw) of Voranol™ 360, a polyether polyol with a hydroxyl number of 360 available from Dow Chemical; 0.26 pbw of water; 0.26 pbw of an oligomeric fluorochemical surfactant as described in Example 1 of U.S. Pat. No. 3,787,351; 0.13 pbw of Polycat™ 8, a N,N-dimethylcyclohexylamine catalyst available from Air Products; and 1.87 pbw of C4F9OCF2CF2H as the blowing agent.
The ingredients of Component B were mixed to obtain an emulsion which was then admixed with Component A and stirred at 2500 rpm for 10 seconds. The cream time of the foam was approximately 10 seconds. Rise time and tack-free time was approximately 2 and 3 minutes respectively.

Turning to `FC(F)C(F)(F)OC(F)(F)C(F)(F)C(F)(F)C(F)(F)F` [C4F9OC2F4H, C4F9—O—C2F4H], the “Appearance of resulting polyurethane foam” value is “rigid and had a uniform distribution of very fine, closed cells”; the “Cream time of the foam” value is on record as “approximately 10 seconds”; the “Rise time of the foam” value is reported as “approximately 2 minutes”; the “Tack-free time of the foam” value was around 3 min.
